Test results taken from paper PMC6207757.
Results are given in words; binding and its absence hold for the method and conditions named. In cells and extracts the contact can be indirect. These calls come from enrichment with a bait or labelling near it, and not all partners need be listed.

Target: Flag-MPP9 (M-Phase Phosphoprotein 9) (not stated (human or mouse cDNA cloned))
Assay: affinity purification with mass spectrometry; anti-Flag immunoprecipitation from lysates (ELB buffer) of HEK293T cells overexpressing Flag-MPP9; bands of a silver-stained gel digested with trypsin, Orbitrap Elite

binding: binds
B1: Kinesin Family Member 24 (KIF24) (protein, UniProt Q5T7B8 1-1368)
chain: MASWLYECLCEAELAQYYSHFTALGLQKIDELAKITMKDYSKLGVHDMNDRKRLFQLIKIIKIMQEEDKAVSIPERHLQTSSLRIKSQELRSGPRRQLNFDSPADNKDRNASNDGFEMCSLSDFSANEQKSTYLKVLEHMLPDDSQYHTKTGILNATAGDSYVQTEISTSLFSPNYLSAILGDCDIPIIQRISHVSGYNYGIPHSCIRQNTSEKQNPWTEMEKIRVCVRKRPLGMREVRRGEINIITVEDKETLLVHEKKEAVDLTQYILQHVFYFDEVFGEACTNQDVYMKTTHPLIQHIFNGGNATCFAYGQTGAGKTYTMIGTHENPGLYALAAKDIFRQLEVSQPRKHLFVWISFYEIYCGQLYDLLNRRKRLFAREDSKHMVQIVGLQELQVDSVELLLEVILKGSKERSTGATGVNADSSRSHAVIQIQIKDSAKRTFGRISFIDLAGSERAADARDSDRQTKMEGAEINQSLLALKECIRALDQEHTHTPFRQSKLTQVLKDSFIGNAKTCMIANISPSHVATEHTLNTLRYADRVKELKKGIKCCTSVTSRNRTSGNSSPKRIQSSPGALSEDKCSPKKVKLGFQQSLTVAAPGSTRGKVHPLTSHPPNIPFTSAPKVSGKRGGSRGSPSQEWVIHASPVKGTVRSGHVAKKKPEESAPLCSEKNRMGNKTVLGWESRASGPGEGLVRGKLSTKCKKVQTVQPVQKQLVSRVELSFGNAHHRAEYSQDSQRGTPARPASEAWTNIPPHQKEREEHLRFYHQQFQQPPLLQQKLKYQPLKRSLRQYRPPEGQLTNETPPLFHSYSENHDGAQVEELDDSDFSEDSFSHISSQRATKQRNTLENSEDSFFLHQTWGQGPEKQVAERQQSLFSSPRTGDKKDLTKSWVDSRDPINHRRAALDHSCSPSKGPVDWSRENSTSSGPSPRDSLAEKPYCSQVDFIYRQERGGGSSFDLRKDASQSEVSGENEGNLPSPEEDGFTISLSHVAVPGSPDQRDTVTTPLREVSADGPIQVTSTVKNGHAVPGEDPRGQLGTHAEYASGLMSPLTMSLLENPDNEGSPPSEQLVQDGATHSLVAESTGGPVVSHTVPSGDQEAALPVSSATRHLWLSSSPPDNKPGGDLPALSPSPIRQHPADKLPSREADLGEACQSRETVLFSHEHMGSEQYDADAEETGLDGSWGFPGKPFTTIHMGVPHSGPTLTPRTGSSDVADQLWAQERKHPTRLGWQEFGLSTDPIKLPCNSENVTWLKPRPISRCLARPSSPLVPSCSPKTAGTLRQPTLEQAQQVVIRAHQEQLDEMAELGFKEETLMSQLASNDFEDFVTQLDEIMVLKSKCIQSLRSQLQLYLTCHGPTAAPEGTVPS
